The values below come from the supplement of paper PMC10849652.

By UniProt entry, the sequences of proteins in these tests, tags left out. Where a name states a change or a piece, a line headed by the entry shows the natural chain unless it says otherwise.
UniProt Q9Y6D9: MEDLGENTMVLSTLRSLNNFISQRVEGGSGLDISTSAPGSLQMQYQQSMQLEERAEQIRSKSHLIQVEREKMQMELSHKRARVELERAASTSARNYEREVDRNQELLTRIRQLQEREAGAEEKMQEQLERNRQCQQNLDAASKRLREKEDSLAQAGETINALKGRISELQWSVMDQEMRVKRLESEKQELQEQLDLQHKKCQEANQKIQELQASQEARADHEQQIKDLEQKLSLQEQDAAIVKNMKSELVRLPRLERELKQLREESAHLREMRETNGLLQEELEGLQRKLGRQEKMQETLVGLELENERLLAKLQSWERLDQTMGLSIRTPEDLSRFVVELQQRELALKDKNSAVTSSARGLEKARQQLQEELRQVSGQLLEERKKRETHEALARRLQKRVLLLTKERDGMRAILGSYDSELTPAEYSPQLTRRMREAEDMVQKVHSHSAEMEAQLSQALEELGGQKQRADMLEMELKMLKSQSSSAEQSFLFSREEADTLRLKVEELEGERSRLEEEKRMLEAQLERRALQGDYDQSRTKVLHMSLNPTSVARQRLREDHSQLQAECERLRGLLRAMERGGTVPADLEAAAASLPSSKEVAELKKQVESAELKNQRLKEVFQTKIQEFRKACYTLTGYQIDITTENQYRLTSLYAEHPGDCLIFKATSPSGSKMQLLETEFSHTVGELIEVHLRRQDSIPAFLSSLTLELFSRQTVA
UniProt Q9Y4Y9: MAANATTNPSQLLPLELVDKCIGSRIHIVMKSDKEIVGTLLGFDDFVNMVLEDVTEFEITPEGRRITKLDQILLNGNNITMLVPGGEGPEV
UniProt P12980: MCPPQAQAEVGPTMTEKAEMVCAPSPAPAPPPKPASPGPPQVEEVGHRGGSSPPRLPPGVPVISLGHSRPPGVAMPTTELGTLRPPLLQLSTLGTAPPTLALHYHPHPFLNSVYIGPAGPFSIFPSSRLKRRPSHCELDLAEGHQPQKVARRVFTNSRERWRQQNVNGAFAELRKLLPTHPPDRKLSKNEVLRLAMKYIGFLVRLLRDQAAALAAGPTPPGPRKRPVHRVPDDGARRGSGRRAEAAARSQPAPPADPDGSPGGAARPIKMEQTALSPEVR
UniProt P43361: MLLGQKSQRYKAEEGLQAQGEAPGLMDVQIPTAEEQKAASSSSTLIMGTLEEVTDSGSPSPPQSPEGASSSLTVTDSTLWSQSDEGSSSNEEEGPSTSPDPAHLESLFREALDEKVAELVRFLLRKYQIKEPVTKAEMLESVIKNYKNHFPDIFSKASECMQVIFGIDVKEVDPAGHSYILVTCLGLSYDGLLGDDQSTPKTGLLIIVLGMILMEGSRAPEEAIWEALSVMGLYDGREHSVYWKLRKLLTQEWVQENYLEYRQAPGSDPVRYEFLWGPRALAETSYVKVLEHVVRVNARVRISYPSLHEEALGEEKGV
UniProt O95819: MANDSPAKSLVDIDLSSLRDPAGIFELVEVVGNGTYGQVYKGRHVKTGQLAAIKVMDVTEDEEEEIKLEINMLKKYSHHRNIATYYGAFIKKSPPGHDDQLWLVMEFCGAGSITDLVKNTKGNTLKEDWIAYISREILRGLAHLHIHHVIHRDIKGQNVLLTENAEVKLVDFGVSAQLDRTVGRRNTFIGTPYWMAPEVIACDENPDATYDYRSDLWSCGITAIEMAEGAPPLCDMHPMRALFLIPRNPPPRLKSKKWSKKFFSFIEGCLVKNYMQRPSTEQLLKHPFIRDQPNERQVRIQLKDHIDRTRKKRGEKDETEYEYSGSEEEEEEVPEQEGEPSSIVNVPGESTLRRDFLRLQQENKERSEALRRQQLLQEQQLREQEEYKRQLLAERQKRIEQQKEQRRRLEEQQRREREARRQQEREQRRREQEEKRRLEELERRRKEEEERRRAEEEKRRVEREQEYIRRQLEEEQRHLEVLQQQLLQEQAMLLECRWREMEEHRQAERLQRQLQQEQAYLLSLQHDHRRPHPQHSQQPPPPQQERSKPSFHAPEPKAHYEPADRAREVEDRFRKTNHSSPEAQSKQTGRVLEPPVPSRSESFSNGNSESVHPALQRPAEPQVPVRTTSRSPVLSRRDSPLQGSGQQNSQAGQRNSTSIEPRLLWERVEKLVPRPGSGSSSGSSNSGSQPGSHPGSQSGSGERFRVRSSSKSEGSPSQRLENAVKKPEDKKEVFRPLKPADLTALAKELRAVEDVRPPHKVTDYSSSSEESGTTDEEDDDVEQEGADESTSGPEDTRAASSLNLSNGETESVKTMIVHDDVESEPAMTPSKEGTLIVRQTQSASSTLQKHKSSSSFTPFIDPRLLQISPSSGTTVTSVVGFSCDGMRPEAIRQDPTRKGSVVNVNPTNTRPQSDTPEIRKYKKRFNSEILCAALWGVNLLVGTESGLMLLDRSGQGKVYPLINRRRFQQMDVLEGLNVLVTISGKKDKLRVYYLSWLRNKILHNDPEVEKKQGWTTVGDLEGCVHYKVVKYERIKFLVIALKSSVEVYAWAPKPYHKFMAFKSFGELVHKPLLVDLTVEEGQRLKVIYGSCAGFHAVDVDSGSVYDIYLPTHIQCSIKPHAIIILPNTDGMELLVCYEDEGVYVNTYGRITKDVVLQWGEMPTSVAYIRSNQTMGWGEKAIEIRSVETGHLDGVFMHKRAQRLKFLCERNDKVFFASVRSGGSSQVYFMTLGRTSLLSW
UniProt Q9Y4K4: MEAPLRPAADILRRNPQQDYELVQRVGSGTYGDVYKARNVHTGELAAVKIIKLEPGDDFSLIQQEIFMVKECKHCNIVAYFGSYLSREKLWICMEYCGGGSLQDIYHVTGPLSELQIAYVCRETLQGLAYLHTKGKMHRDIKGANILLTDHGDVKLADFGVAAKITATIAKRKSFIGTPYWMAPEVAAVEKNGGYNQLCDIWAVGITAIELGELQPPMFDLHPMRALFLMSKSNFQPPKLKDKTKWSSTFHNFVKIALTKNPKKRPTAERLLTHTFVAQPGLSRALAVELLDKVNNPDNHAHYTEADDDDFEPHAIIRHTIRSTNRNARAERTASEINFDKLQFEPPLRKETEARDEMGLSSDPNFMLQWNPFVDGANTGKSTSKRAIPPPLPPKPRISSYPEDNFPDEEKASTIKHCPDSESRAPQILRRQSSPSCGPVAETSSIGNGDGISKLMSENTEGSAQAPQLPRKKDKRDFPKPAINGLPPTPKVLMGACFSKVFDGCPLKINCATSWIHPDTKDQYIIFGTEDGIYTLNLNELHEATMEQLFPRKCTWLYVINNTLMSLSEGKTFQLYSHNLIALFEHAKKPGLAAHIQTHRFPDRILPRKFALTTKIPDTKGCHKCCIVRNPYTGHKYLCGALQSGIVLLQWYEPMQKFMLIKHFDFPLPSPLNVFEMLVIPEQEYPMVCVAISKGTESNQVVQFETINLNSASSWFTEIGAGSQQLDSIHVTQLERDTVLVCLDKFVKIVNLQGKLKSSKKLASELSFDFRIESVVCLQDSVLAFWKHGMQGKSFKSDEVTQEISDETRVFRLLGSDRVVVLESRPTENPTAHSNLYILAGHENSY
UniProt Q969L4: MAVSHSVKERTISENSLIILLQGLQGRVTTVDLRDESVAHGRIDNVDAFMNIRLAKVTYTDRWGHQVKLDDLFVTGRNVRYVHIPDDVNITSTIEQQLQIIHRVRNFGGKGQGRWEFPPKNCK
UniProt P43355: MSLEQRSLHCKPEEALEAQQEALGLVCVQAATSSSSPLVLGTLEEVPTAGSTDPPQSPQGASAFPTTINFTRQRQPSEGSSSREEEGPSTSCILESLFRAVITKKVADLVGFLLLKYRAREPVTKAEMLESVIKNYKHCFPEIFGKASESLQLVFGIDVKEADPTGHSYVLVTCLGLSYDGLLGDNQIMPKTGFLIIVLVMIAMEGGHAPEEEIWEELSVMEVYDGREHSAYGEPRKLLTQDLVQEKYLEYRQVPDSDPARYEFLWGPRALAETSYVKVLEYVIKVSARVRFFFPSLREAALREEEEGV
UniProt Q92585: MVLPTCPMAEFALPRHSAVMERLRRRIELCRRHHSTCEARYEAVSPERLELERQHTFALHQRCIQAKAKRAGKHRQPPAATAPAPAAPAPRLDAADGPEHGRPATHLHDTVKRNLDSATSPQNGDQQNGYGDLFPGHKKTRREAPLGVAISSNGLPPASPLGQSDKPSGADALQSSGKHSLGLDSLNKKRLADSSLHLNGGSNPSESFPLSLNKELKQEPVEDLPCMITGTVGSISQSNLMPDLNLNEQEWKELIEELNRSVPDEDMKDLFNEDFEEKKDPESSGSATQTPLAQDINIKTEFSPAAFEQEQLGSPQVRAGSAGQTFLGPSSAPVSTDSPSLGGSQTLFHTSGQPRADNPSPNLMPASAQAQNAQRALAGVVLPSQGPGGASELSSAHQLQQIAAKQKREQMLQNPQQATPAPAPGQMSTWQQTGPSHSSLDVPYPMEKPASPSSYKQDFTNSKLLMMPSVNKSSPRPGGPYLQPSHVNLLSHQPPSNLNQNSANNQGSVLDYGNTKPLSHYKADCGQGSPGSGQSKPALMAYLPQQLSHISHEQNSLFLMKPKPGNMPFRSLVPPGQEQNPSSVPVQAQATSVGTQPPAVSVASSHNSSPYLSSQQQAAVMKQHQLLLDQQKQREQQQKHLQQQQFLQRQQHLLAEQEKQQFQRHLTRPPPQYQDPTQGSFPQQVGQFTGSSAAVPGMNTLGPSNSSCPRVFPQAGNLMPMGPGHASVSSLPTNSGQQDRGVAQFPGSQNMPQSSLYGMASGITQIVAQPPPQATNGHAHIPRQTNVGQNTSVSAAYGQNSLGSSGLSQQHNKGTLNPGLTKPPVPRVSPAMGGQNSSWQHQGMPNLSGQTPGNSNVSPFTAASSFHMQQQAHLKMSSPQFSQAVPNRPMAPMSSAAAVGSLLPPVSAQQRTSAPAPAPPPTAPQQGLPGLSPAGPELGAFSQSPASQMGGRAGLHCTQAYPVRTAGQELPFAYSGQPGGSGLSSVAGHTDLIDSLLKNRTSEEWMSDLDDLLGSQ
UniProt Q8IVH8: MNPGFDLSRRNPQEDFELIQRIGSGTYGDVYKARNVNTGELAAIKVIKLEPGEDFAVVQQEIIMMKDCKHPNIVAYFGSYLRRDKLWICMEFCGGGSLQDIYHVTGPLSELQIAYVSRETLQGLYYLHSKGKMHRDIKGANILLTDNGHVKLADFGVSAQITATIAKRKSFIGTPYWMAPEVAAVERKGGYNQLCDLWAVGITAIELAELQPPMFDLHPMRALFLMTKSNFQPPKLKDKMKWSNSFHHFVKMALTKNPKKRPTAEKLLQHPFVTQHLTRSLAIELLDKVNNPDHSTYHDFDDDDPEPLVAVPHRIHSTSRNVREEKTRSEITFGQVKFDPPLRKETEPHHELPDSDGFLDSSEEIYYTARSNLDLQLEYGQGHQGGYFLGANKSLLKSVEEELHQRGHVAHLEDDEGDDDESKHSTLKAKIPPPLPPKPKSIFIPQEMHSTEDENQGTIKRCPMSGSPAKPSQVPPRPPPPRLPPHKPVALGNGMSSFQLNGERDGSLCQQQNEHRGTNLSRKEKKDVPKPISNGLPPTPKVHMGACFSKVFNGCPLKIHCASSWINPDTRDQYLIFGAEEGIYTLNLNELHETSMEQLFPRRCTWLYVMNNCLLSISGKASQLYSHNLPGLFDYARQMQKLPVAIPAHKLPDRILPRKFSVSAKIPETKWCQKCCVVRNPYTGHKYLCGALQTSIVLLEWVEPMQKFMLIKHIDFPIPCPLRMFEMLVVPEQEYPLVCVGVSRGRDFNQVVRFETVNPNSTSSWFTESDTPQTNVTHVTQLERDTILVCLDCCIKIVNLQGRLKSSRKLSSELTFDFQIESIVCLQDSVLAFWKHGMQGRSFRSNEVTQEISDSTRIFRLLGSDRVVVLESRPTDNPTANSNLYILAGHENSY
UniProt Q8WVR3: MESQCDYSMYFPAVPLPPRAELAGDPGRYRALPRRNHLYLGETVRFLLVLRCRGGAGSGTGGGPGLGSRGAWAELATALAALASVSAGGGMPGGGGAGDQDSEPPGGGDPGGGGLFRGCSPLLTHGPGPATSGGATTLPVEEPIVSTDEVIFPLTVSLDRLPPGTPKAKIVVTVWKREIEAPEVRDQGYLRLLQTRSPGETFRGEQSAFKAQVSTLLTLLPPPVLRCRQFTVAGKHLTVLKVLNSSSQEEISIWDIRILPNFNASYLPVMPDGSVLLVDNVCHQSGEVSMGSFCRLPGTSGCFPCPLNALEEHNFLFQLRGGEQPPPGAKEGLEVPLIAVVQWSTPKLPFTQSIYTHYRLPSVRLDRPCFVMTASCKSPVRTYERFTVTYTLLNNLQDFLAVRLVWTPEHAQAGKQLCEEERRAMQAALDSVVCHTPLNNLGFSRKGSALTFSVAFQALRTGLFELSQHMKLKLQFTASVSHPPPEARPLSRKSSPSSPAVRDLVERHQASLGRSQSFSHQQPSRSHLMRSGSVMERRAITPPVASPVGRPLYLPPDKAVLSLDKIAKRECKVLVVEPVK
UniProt O15525: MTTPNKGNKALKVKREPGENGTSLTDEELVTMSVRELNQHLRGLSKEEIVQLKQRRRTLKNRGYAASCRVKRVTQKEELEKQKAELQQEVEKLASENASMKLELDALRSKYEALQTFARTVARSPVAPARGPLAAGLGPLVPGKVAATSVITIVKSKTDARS

The list shows a part of the results.

Compound in the first test: CN1CCc2c(c3ccccc3n2Cc2ccc(C(=O)NO)cc2)C1 [Tubastatin A]
Briefly: log2 fold change, soluble protein after heating vs DMSO (PISA); higher = thermal stabilisation; K562 cells, 10 uM, 30 min; active = over 0.2 and 3.5 SD of the protein, either way, in both replicates (recomputed). Summed up:
(§1)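 K562 cells at 2×10^6 cells/mL were treated for 30 min with 10 μM compound, and aliquots were heated for 3 min over 48°C-58°C before pooling. Extraction used PBS with 0.5% NP-40 at 4°C, and soluble protein was the supernatant after 21,000xg for 90 min, measured by TMTpro 16plex LC-MS/MS with channel sums equalised. Thermal stability values, relative to control samples and from duplicates, are log2 fold changes.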
With MAP3K10 (UniProt Q02779), the log2 fold change is inactive: 0.036.

Regarding MAD1L1 (UniProt Q9Y6D9), the log2 fold change is inactive: 0.073.

Turning to LSM5 (UniProt Q9Y4Y9), the log2 fold change was inactive: -0.06.

MAP3K20 isoform 2 (UniProt Q9NYL2): the log2 fold change was inactive: 0.093.

Take LYL1 (UniProt P12980): the log2 fold change was inactive: 0.083.

As to MAGEA8 (UniProt P43361), the log2 fold change was inactive: 0.101.

For MAP4K4 isoform 6 (UniProt O95819), the log2 fold change is inactive: -0.016.

On to MAP4K5 (UniProt Q9Y4K4), for which the log2 fold change was inactive: 0.113.

MAPRE3 isoform 2 (UniProt Q9UPY8): the log2 fold change was inactive: 0.13.

LSM10 (UniProt Q969L4): the log2 fold change was inactive: -0.033.

For MAPK11 (UniProt Q15759), the log2 fold change was inactive: 0.208.

In the case of MAP4K2 (UniProt Q12851), the log2 fold change is inactive: 0.076.

On to MAPKAP1 (UniProt Q9BPZ7), for which the log2 fold change was inactive: -0.142.

For MANSC1 (UniProt Q9H8J5), the log2 fold change is inactive: -0.099.

Regarding LSM14A, A0A140TA76, the log2 fold change is inactive: 0.028.

As to LRRCC1 (UniProt Q9C099), the log2 fold change is inactive: 0.292.

Compound in a further test: CNC(=O)C1=CC=CC=C1NC2=NC(=NC=C2Cl)NC3=C(C=C(C=C3)N4CCOCC4)OC
Described as above. Summed up: as §1
Regarding MAP7D3 (UniProt Q8IWC1), the log2 fold change was inactive: -0.04.

MAD1L1 (UniProt Q9Y6D9): the log2 fold change is inactive: -0.008.

Take MAML2 (UniProt Q8IZL2): the log2 fold change is inactive: -0.373.

Regarding LSM5 (UniProt Q9Y4Y9), the log2 fold change is inactive: 0.122.

MAP3K20 isoform 2 (UniProt Q9NYL2): the log2 fold change is inactive: -0.024.

With MAGEA1 (UniProt P43355), the log2 fold change is inactive: -0.029.

LYN isoform 2 (UniProt P07948): the log2 fold change was inactive: 0.043.

Consider LYL1 (UniProt P12980), for which the log2 fold change was inactive: -0.011.

For the target MAGEA8 (UniProt P43361), the log2 fold change was inactive: 0.123.

Regarding MAML1 (UniProt Q92585), the log2 fold change is active: 0.644.

Regarding MAP4K5 (UniProt Q9Y4K4), the log2 fold change is inactive: -0.02.

For the target MAPT isoform 9 (UniProt P10636), the log2 fold change was inactive: 0.014.

For the target LSM10 (UniProt Q969L4), the log2 fold change was inactive: -0.293.

As for MAPK11 (UniProt Q15759), the log2 fold change was inactive: 0.615.

For the target MAP4K3 (UniProt Q8IVH8), the log2 fold change was inactive: -0.067.

In the case of MAP4 isoform 5 (UniProt P27816), the log2 fold change was inactive: 0.13.

Take LRRFIP1 isoform 4 (UniProt Q32MZ4): the log2 fold change was inactive: -0.111.

Turning to MAP11 (UniProt Q8WVR3), the log2 fold change is inactive: -0.188.

Compound in another test: CNC(=O)c1ccc(Nc2ncc(C(F)(F)F)c(NCc3nccnc3N(C)S(C)(=O)=O)n2)cc1 [defactinib]
Described as above. The procedure, abridged: as §1
Take MAP3K10 (UniProt Q02779): the log2 fold change is inactive: -0.129.

In the case of MAD1L1 (UniProt Q9Y6D9), the log2 fold change was inactive: -0.193.

For the target LYN isoform 2 (UniProt P07948), the log2 fold change is inactive: -0.035.

Consider LYL1 (UniProt P12980), for which the log2 fold change was inactive: 0.016.

For the target MAGEA8 (UniProt P43361), the log2 fold change was inactive: -0.267.

Regarding MAP4K4 isoform 6 (UniProt O95819), the log2 fold change is inactive: -0.012.

For MAML1 (UniProt Q92585), the log2 fold change is inactive: -0.179.

With MAP4K5 (UniProt Q9Y4K4), the log2 fold change is inactive: -0.02.

Turning to MAPT isoform 9 (UniProt P10636), the log2 fold change is inactive: -0.124.

On to MAFG (UniProt O15525), for which the log2 fold change was inactive: 0.082.

Regarding MAP4K3 (UniProt Q8IVH8), the log2 fold change was inactive: -0.184.

Regarding LSM14A, A0A140TA76, the log2 fold change was inactive: 0.217.

As for LYST (UniProt Q99698), the log2 fold change was inactive: -0.004.

Take LSR (UniProt M0QZL9): the log2 fold change was inactive: 0.065.

Regarding MAP11 (UniProt Q8WVR3), the log2 fold change is inactive: -0.158.

Compound in the next test: CNCc1ccc(-c2[nH]c3cc(F)cc4c3c2CCNC4=O)cc1 [rucaparib]
The description is as above. Summed up:
as §1
In the case of MAP7D3 (UniProt Q8IWC1), the log2 fold change is inactive: 0.108.

On to LSM5 (UniProt Q9Y4Y9), for which the log2 fold change was inactive: -0.001.

As for LYL1 (UniProt P12980), the log2 fold change is inactive: 0.251.

For MAGEA8 (UniProt P43361), the log2 fold change is inactive: -0.012.

For MAP4K4 isoform 6 (UniProt O95819), the log2 fold change was inactive: 0.067.

MAP4K5 (UniProt Q9Y4K4): the log2 fold change is inactive: -0.08.

Turning to MAP4K2 (UniProt Q12851), the log2 fold change is inactive: -0.003.

Take MARCHF3 (UniProt Q86UD3): the log2 fold change was inactive: 0.

Regarding MAP4K3 (UniProt Q8IVH8), the log2 fold change is inactive: -0.219.

Take MAP4 isoform 5 (UniProt P27816): the log2 fold change is inactive: 0.046.

Regarding MAP11 (UniProt Q8WVR3), the log2 fold change is inactive: 0.103.

Compound in the next test: CNc1nc(-c2ccc3c(N)n[nH]c3c2)cc(N2C[C@@H](C(=O)NC3CCCCC3)CC[C@H]2C)n1
The description is as above. Summed up: as §1
As to MAGEA8 (UniProt P43361), the log2 fold change was inactive: -0.092.

Regarding MAP4K4 isoform 6 (UniProt O95819), the log2 fold change was inactive: -0.186.

With LSM10 (UniProt Q969L4), the log2 fold change is inactive: -0.068.

Regarding MAP2K5 (UniProt Q13163), the log2 fold change was inactive: 0.004.

For LYPLA1, A0A087X1K9, the log2 fold change is inactive: 0.201.

For LRRFIP1 isoform 4 (UniProt Q32MZ4), the log2 fold change was inactive: -0.089.

Consider LYST (UniProt Q99698), for which the log2 fold change is inactive: -0.08.

Consider LRRCC1 (UniProt Q9C099), for which the log2 fold change is inactive: 0.06.
